Results are given in words; binding and its absence hold for the method and conditions named. Binding can be weak; no strength is given.

The experiment deals with HLA-B*44:02 (human). The experiment can be described thus: UV peptide exchange, anti-b2m ELISA.
Turning to AEATARLNVF [… (SEQ ID NO: 174)], the binding entry is on record as “binds”. In the case of LEAQQEAL [LEAQQEAL (SEQ ID NO: 193)] it was “binds”. With AEFLLRIFL [… (SEQ ID NO: 52)], the binding result is given as “binds”. Consider TEARATSDSW [… (SEQ ID NO: 207)], for which the binding entry is listed as “binds”.

For the molecule QESDLRLFL [… (SEQ ID NO: 57)], the binding result is reported as “binds”.

As to AELEALTDLW [… (SEQ ID NO: 184)], the binding entry is reported as “binds”. In the case of HETETRTTW [… (SEQ ID NO: 55)] it was “binds”. Regarding AEIEPKADG [… (SEQ ID NO: 175)], the binding result is recorded as “binds”. In the case of IEHSTQAQDTL [… (SEQ ID NO: 203)] it was “binds”; in that of AEITITTQTGY [… (SEQ ID NO: 54)], “binds”; in that of VEQTRAGSLL [… (SEQ ID NO: 214)], “binds”. In the case of SENVTMKVV [… (SEQ ID NO: 59)] it was “binds”. In the case of TEVGTMNLF [… (SEQ ID NO: 177)] it was “binds”; in that of EEDAALFKAW [… (SEQ ID NO: 191)], “binds”; in that of AEAQVGDERDY [… (SEQ ID NO: 173)], “binds”. Consider YEVARILNL [… (SEQ ID NO: 190)], for which the binding result is recorded as “binds”. In the case of SESVTSRTSY [… (SEQ ID NO: 206)] it was “binds”. As for TEVSRTEL [TEVSRTEL (SEQ ID NO: 209)], the binding entry is listed as “binds”. In the case of AEVLLPRLV [… (SEQ ID NO: 197)] it was “binds”; in that of RETSTSEETSL [… (SEQ ID NO: 204)], “binds”; in that of REAGDEFELRY [… (SEQ ID NO: 180)], “binds”. In the case of KEVDPTSHSY [… (SEQ ID NO: 194)] it was “binds”; in that of QEAARAAL [QEAARAAL (SEQ ID NO: 198)], “binds”; in that of AESIPTVSF [… (SEQ ID NO: 200)], “binds”. In the case of GEMEQKQL [GEMEQKQL (SEQ ID NO: 58)] it was “binds”; in that of REGPEEPGL [… (SEQ ID NO: 186)], “binds”. Consider SEPDTTASW [… (SEQ ID NO: 56)], for which the binding result is “binds”. In the case of REAGDEFEL [… (SEQ ID NO: 179)] it was “binds”; in that of REMPGGPVW [… (SEQ ID NO: 196)], “binds”. In the case of YEFKFPNRL [… (SEQ ID NO: 192)] it was “binds”. In the case of YEKGIMQKV [… (SEQ ID NO: 183)] it was “binds”. In the case of AERQPGAASL [… (SEQ ID NO: 185)], the binding result is “binds”. In the case of KESIPRWYY [… (SEQ ID NO: 213)] it was “binds”; in that of AETILTFHAF [… (SEQ ID NO: 201)], “binds”; in that of GEAQTRIAW [… (SEQ ID NO: 187)], “binds”.

On to EEKVFPSPLW [… (SEQ ID NO: 211)], for which the binding entry is “binds”. In the case of GEGPKTSW [GEGPKTSW (SEQ ID NO: 181)] it was “binds”. In the case of NELFRDGVNW [… (SEQ ID NO: 178)], the binding entry is on record as “binds”. Turning to AEIEPKADGSW [… (SEQ ID NO: 176)], the binding result is given as “binds”. Turning to TEVSRTEAI [… (SEQ ID NO: 208)], the binding result is given as “binds”.

AEFAKKQPWW [… (SEQ ID NO: 188)]: the binding entry is reported as “binds”. In the case of MEHPGKLLF [… (SEQ ID NO: 53)] it was “binds”; in that of VEAADIFQNF [… (SEQ ID NO: 210)], “binds”.

On to MEQKQLQKRF [… (SEQ ID NO: 212)], for which the binding entry is listed as “binds”. In the case of REIDESLIFY [… (SEQ ID NO: 199)] it was “binds”. In the case of HESEATASW [… (SEQ ID NO: 202)] it was “binds”; in that of SEITRIEM [SEITRIEM (SEQ ID NO: 205)], “binds”. In the case of KEFLFNMY [KEFLFNMY (SEQ ID NO: 189)] it was “binds”; in that of KEATEAQSL [… (SEQ ID NO: 182)], “binds”; in that of AEDKRHYSV [… (SEQ ID NO: 195)], “binds”.

The values above are taken from patent US20230365651A1.
